Test results published in the supplement of paper PMC5949888.
± gives the standard deviation of the averaged measurements. Most values lie at the floor of the assay. Slopes are relative: functional sequences can read slightly below zero.

test system: Saccharomyces cerevisiae PS128 hsf1 delta, HSF1(1-493) fusion; experiment: growth estimate (transactivation domain function in HSF1 fusion, heat-shock survival) (a.u. (slope of normalised read count over time)); higher = stronger growth at 37°C, i.e. more transactivation activity; conditions: library: random library

Row | Substance | growth estimate
1 | LRESTVPRVRWAGRRRPLPG | -0.246
2 | LRFAYRRGRAIMNHL | < -0.25
3 | LRFFRPARA | < -0.25
4 | LRFIWYILIHRKGSEKMRDR | < -0.25
5 | LRGEGGHLR | < -0.25
6 | LRGGQGTDWPIVFNTYQRQP | < -0.25
7 | LRGLGRPCVEFQLSRLVLFE | < -0.25
8 | LRGNFMEFTAIVLSKVVRRA | < -0.25
9 | LRGTNGSVDVIPGQTTGG | < -0.25
10 | LRGVCEAIIALCFTTSPGSA | < -0.25
11 | LRHFISLNSTSARSSLSTRP | < -0.25
12 | LRHGCRAVLA | < -0.25
13 | LRHPGLISAACQCGLNRLE | < -0.25
14 | LRHPKLSSLSRRGRPHFIPC | < -0.25
15 | LRHRFTRISV | < -0.25
16 | LRI | -0.232 ± 0.026
17 | LRIARV | < -0.25
18 | LRICLGLV | < -0.25
19 | LRIIGREYFPERERYGGLSL | < -0.25
20 | LRIRKHGCP | < -0.25
21 | LRISVAEGHDASETREDICQ | < -0.25
22 | LRISYKVGFQLDDYGLTRRD | < -0.25
23 | LRKAISLRPI | < -0.25
24 | LRKALELVEQVVFTSRCQRA | -0.0565
25 | LRKFVTITRPL | < -0.25

Row | Substance | growth estimate
26 | LRKSEVLGFGCLNSSGFFEL | -0.125
27 | LRKTL | < -0.25
28 | LRLCVFRFVVVTKTNDTVLP | -0.246
29 | LRLDQL | < -0.25
30 | LRLERWSCALAMANAPRTGS | < -0.25
31 | LRLG | < -0.253
32 | LRLHFILRRDRNEYVMCVSR | < -0.25
33 | LRLKMPPGSVRMSLREGP | < -0.25
34 | LRLNGFGFQHHDPLARGVIG | < -0.25
35 | LRLP | < -0.25
36 | LRLTASRGGCR | < -0.25
37 | LRLTGAPVDSIIVRELGEQN | < -0.25
38 | LRLTLYTPNGVGSFGSVSQG | < -0.25
39 | LRNGFTLLLPNVYPVSRLLQ | < -0.25
40 | LRNK | < -0.25
41 | LRP | < -0.25
42 | LRPASELVSRCGFLAMGR | < -0.25
43 | LRPDRGPSC | < -0.25
44 | LRPFLRRRGRIRNPFFDPVS | < -0.25
45 | LRPHEGHRLAHPTLSNHLCI | < -0.25
46 | LRPKFITPSLKGVLTLCLRG | < -0.25
47 | LRPKI | -0.246
48 | LRPSNLRKGKFSFGFVFGHV | < -0.25
49 | LRQLQFSGLYVFKEPAPTRD | < -0.25
50 | LRQPLRCFSCLSAIERRVSG | < -0.25

Row | Substance | growth estimate
51 | LRRPGEPQESFCTVRFPHPN | < -0.25
52 | LRRPMASSVWPMIANGIGL | < -0.25
53 | LRRPTRG | < -0.25
54 | LRRQIAKCSTISERWGNQRS | < -0.25
55 | LRRSKRPVADRRVLCIQYYP | < -0.25
56 | LRRTSPCGCSGF | < -0.25
57 | LRRWWTIGGGPFSQVAESTG | < -0.25
58 | LRSDGWMFSPSWCLSSSSVG | < -0.25
59 | LRSDPWTVSHQGCD | < -0.25
60 | LRSES | < -0.25
61 | LRSGTVVVHYAGV | < -0.25
62 | LRSMILLCTDADQRCYETAS | < -0.25
63 | LRSRKQMPASRE | < -0.25
64 | LRSRQSGLT | < -0.25
65 | LRTADL | < -0.25
66 | LRTELSAGASMGLVGWTESC | < -0.25
67 | LRTENG | < -0.25
68 | LRTIALLLRKWLCWGVLVVC | < -0.25
69 | LRTPADASWRNWGIPAFHHT | -0.209
70 | LRTVVICF | < -0.25
71 | LRVEVACGMMSRIASVVRGL | < -0.25
72 | LRVIEIVAVLGAVPV | < -0.25
73 | LRVLHTPLWSIKIVPPYDAG | < -0.25
74 | LRVQGKYRVSLFYAVIPVIA | < -0.25
75 | LRVR | -0.245

Row | Substance | growth estimate
76 | LRVRAIATPHHRVEKRTIDH | < -0.25
77 | LRVSRLTGKRSH | < -0.25
78 | LRVT | < -0.25
79 | LRVY | < -0.25
80 | LRYASGTGILATR | < -0.25
81 | LRYFYLVYNKSYQGMRPY | < -0.25
82 | LRYSMTA | < -0.25
83 | LSADLVYTGLVLLRSISHST | < -0.25
84 | LSAGAPVWRYKMSCGECWPV | < -0.25
85 | LSAVARSNWTQTCITG | < -0.25
86 | LSCFLVNLLSILSKKRKSLL | < -0.25
87 | LSCQEPAI | < -0.25
88 | LSCVPTVELTGDDPHWNPDR | < -0.25
89 | LSDFNVCQQVT | < -0.25
90 | LSDLVYLGNYAWCAHGPQRP | < -0.25
91 | LSDRYDPRCGLQFSG | < -0.25
92 | LSDVASEIPHVGRGLH | < -0.25
93 | LSESIRFRFVHVPPSRPVPP | < -0.25
94 | LSESY | < -0.25
95 | LSFGVLL | -0.112
96 | LSFTKCRSRVTGLANSYLHR | < -0.25
97 | LSG | < -0.25
98 | LSGILFI | < -0.25
99 | LSGIRDVDAFARSPRV | < -0.25
100 | LSGKYYRKLC | < -0.25
